This assay is described as follows: qHTS Assay to Find Inhibitors of Chronic Active B-Cell Receptor Signaling. To be noted: ABC-DLBCL IkBa-CBG/CBR reporter, luminescence ratio (green luciferase fused to IkBa over red control in TMD8 lymphoma cells), 4 h. Put shortly: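 TMD8 human ABC-DLBCL cells with doxycycline-inducible IκBα–green luciferase fusion and unfused red luciferase, in 0.5% FBS medium; compounds up to 46 uM, 4 h at 37C. Green/red luminescence ratio, filter-overlap corrected, fitted to concentration-response curves.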
(In general: qHTS replaces the single test concentration by a dilution series.)

[1] abbreviates: measured here: CBR red luminescence, cell number.
Setting [2] is: measured here: IkBa-CBG green luminescence.

Values joined by “and” are separate entries in the source; they are usually repeats but may differ in a detail not shown here. Identical values can stand only once. The list shows a part of the results. These are further read-outs of the screen, such as a control signal, another cell line or another target. No call is given for them. Compounds called inactive in the main read-out are mostly missing here. The note in brackets gives the kind of curve behind each potency; many fits are weak.

In the case of `CCOc1ccccc1OCC(=O)Nc1ccc(N2CCOCC2)cc1N1CCOCC1`, the AC50 (usually the concentration giving half of the maximal activity seen) under setting [1] was 5.8 µM [rising, full curve, poor fit]. Same read-out and setting: to `O=C(COc1ccc(S(=O)(=O)NCc2ccccc2)cc1)N1CCOCC1` belongs 29.1 µM [rising, single point]. Regarding `CCCN(CCC)C(=O)CC(c1ccc(F)cc1)c1ccco1` (stereo not given), the concentration at half-maximal activity (AC50) under setting [1] is 1.3 µM [falling, full curve, poor fit]. With `O=C(NC(=S)Nc1ccc2ncccc2c1)c1ccccc1`, under setting [1], the concentration at half-maximal activity (AC50) was 5.01 µM [falling, partial curve]. In the case of `CCOc1ccc(C(=O)/C=C/Nc2ccc(S(=O)(=O)N=C(N)N)cc2)cc1`, the half-maximal activity concentration (AC50) under setting [1] was 13 µM [rising, partial curve, poor fit]. In the case of `Nc1cc(N2CCCC2)ccc1[N+](=O)[O-]`, the concentration at half-maximal activity (AC50) under setting [2] is 2.82 µM [falling, partial curve, poor fit]. With `S=C(Nc1ccccn1)c1ccccn1`, the AC50 reads like this: under setting [1], 35.5 µM [falling, single point] and 2.59 µM [rising, single point]; under setting [2], 6.31 µM [falling, full curve] and 2.91 µM [falling, full curve].

`CCN1CCN(c2ccc(NC(=O)c3ccc4c(c3)[nH]c(=O)n4Cc3ccc(F)cc3)cc2)CC1`: the AC50 under setting [1] is 23.1 µM [falling, single point]. Still for that read-out and setting: the result for `CCCNCC1C(Oc2ccc(Cl)cc2Cl)C(=O)N1c1cccc(C)c1C` (stereo not given) reads 35.5 µM [falling, single point]; that for `CSc1nc2[nH]c3c(c2c2nnnn12)CCCC3`, 3.98 µM [rising, partial curve]. On the same count and under the same terms, the result for `CCCn1c(SCC(=O)N2CCN(C(=O)c3ccco3)CC2)nc2ccccc2c1=O` reads 35.5 µM [falling, single point]; that for `C=CCn1c(O)c(N=NC(=S)Nc2ccc(OC)cc2)c2ccccc21`, 6.51 µM [rising, single point]; that for `Cc1ccc(NC(=O)CNC(=O)c2cccs2)c(O)c1`, 16.4 µM [falling, partial curve]. Still for that read-out and setting: to `N#Cc1ccc(N2CCN(c3ccc(F)cc3)CC2)cc1` belongs 0.651 µM [rising, full curve]; to `Cc1cccc(NC(=O)c2ccc(C(=O)c3ccccc3)cc2)n1`, 16.4 µM [falling, partial curve]. Consider `CC(=O)Cn1ncc(Br)c(Br)c1=O`, for which the concentration at half-maximal activity (AC50) under setting [1] is 7.08 µM [falling, partial curve, poor fit] and the AC50 under setting [2] was 5.62 µM [rising, full curve]. As for `Cc1ccccc1-c1nc(Cc2ccc(Cl)cc2)no1`, the AC50 under setting [1] is 20.6 µM [rising, single point]. The same measure, in the same setting: to `CN1/C(=C\C(=O)c2cccc([N+](=O)[O-])c2)Sc2ccccc21` belongs 3.16 µM [rising, partial curve, poor fit]; to `CCN1CCN(C(=O)c2cc3ccc(OC)cc3[nH]2)CC1`, 6.31 µM [rising, partial curve, poor fit]; to `COc1cc(C(=O)N(Cc2ccc(N(C)C)cc2)C2CCS(=O)(=O)C2)cc(OC)c1OC` (stereo not given), 12.6 µM [rising, single point]. Regarding `COc1cc(C(=O)OCC(=O)c2c[nH]c3ccccc23)ccc1OCC(=O)N1CCOCC1`, the half-maximal activity concentration (AC50) under setting [1] is 14.1 µM [falling, partial curve, poor fit].

As for `COc1ccc(/C(N)=N/OC(=O)c2ccc(Br)o2)cc1`, the AC50 under setting [1] was 20 µM [rising, partial curve, poor fit]. As to `COc1cc(/C=C/c2ccc3cccc(O)c3n2)cc(OC)c1OC`, the AC50 is, setting by setting: under setting [1], 7.08 µM [rising, partial curve]; under setting [2], 11.2 µM [falling, partial curve]. As to `Nc1nnc(CC(=O)N/N=C/c2ccc(-c3ccccc3Cl)o2)s1`, the AC50 under setting [1] is 3.26 µM [rising, partial curve, poor fit]. Still for that read-out and setting: to `COc1cccc(C(=O)Nc2cccc(-c3nnc(-c4ccco4)o3)c2)c1` belongs 8.2 µM [falling, partial curve]; to `CCn1c(SCC(=O)Nc2oc(C)c3c(C)n[nH]c(=O)c23)nc2sc(C)c(C)c2c1=O`, 6.51 µM [rising, single point]; to `CCC(C)N(C(=O)COC(=O)c1cn(CC)c2nc(C)ccc2c1=O)C1CCS(=O)(=O)C1` (stereo not given), 6.31 µM [falling, single point]. Still for that read-out and setting: the result for `CN(C)CCSc1nnc2[nH]c3ccccc3c2n1` reads 8.2 µM [falling, partial curve]. Same read-out and setting: to `CC(C)OCCCNC(=O)COc1ccc2oc3c(c2c1)CCCC3` belongs 5.62 µM [rising, single point]. Take `COc1cccc(NC(=S)N(CCc2c(C)[nH]c3ccccc23)Cc2ccco2)c1`: under setting [1], the AC50 was 0.651 µM [rising, full curve, poor fit]. The same measure, in the same setting: the result for `CCOC(=O)c1c(C)nc2c(c1C)c(=O)oc1ccccc12` reads 29.1 µM [rising, single point]. The same measure, in the same setting: the result for `CC(=O)c1ccc(OCc2cc(C(=O)N(C)Cc3ncc(C)[nH]3)no2)cc1` reads 0.0891 µM [rising, full curve, poor fit]; that for `Cc1cccc(N/C(N)=N/c2nc(C)c(Cc3ccccc3)c(=O)[nH]2)c1`, 22.4 µM [rising, single point].

As for `CN(C)CCCN=c1cc(-c2ccccc2)oc2ccc(Cl)cc12`, under setting [1], the half-maximal activity concentration (AC50) was 0.794 µM [rising, full curve, poor fit]. On the same count and under the same terms, to `O=C(CCCCCn1c(=S)[nH]c2ccccc2c1=O)N1CCOCC1` belongs 35.5 µM [falling, partial curve, poor fit]; to `COc1ccc(/C=N/Nc2cc(C)nc(-n3nc(C)cc3C)n2)cc1`, 0.259 µM [falling, full curve, poor fit]; to `Cc1cccc(OCC(=O)NCCCNC(=O)c2ccco2)c1`, 14.1 µM [falling, partial curve, poor fit]. Still for that read-out and setting: to `CC1=NN(C(=O)c2ccccc2Cl)C(O)(c2ccccc2)C1` (stereo not given) belongs 2.24 µM [falling, full curve]; to `CCOc1cc(/C=N/NC(=O)c2ccccc2OCc2ccc(F)cc2)ccc1O`, 7.31 µM [falling, partial curve, poor fit]; to `c1ccc(-c2noc(-c3ccc4c(c3)OCO4)n2)cc1`, 2.51 µM [falling, full curve, poor fit].

Turning to `CC1(C(=O)OCC(=O)Nc2cccc(S(=O)(=O)NC3=NCCCCC3)c2)CC1(Cl)Cl` (stereo not given), the AC50 under setting [1] was 14.1 µM [falling, partial curve, poor fit]. As to `COCCn1c(=S)[nH]c2sc3c(c2c1=O)CCCC3`, the half-maximal activity concentration (AC50) under setting [1] is 35.5 µM [falling, single point]. Regarding `O=C(Nc1cc(=O)[nH]c(=O)[nH]1)c1cccc(Br)c1`, the concentration at half-maximal activity (AC50) is 12.6 µM [rising, partial curve] under setting [1] and 22.4 µM [falling, single point] under setting [2]. Take `C=CCc1cc(C=O)cc(OC)c1OCc1ccc(Cl)cc1`: the AC50 under setting [1] is 14.1 µM [rising, partial curve, poor fit]. On the same count and under the same terms, to `O=S(=O)(NCCCCNS(=O)(=O)c1c(F)cccc1F)c1ccc2c(c1)OCCO2` belongs 23.1 µM [rising, single point]; to `C=CC[C@H](CC(=O)N(CCO)Cc1ccccc1)C(=O)N[C@H](COC(=O)[C@@H](CC=C)Cc1ccc(F)cc1)C(C)(C)C`, 20.6 µM [falling, partial curve, poor fit]. On the same count and under the same terms, the result for `NC(=O)[C@@H]1[C@@H]2C(=O)N(c3ccc(F)cc3)C(=O)[C@@H]2[C@H]2C=Cc3ccccc3N21` reads 11.2 µM [falling, single point]; that for `Cc1ccc2nc(/C(C#N)=C\c3ccc(OC(=O)c4cccs4)cc3)[nH]c2c1`, 8.91 µM [falling, partial curve, poor fit]; that for `CCO/C=C/C(O)(CNC(=O)c1ccc(C(C)(C)C)cc1)C(F)(F)F` (stereo not given), 16.4 µM [rising, partial curve, poor fit]. The same measure, in the same setting: the result for `COc1ccc(CCN(C)Cc2c(O)ccc3cc(Br)ccc23)cc1OC` reads 3.98 µM [falling, partial curve, poor fit]. In the case of `O=C(COc1ccc2c(c1)OCO2)Nc1nccs1`, under setting [1], the half-maximal activity concentration (AC50) is 7.08 µM [falling, partial curve, poor fit]. On the same count and under the same terms, the result for `C/C(=N\Nc1ccccc1)c1cc2ccccc2oc1=O` reads 10 µM [rising, partial curve, poor fit]. Consider `COc1cc(/C=C/c2ccc3cccc(O)c3n2)c(Br)cc1O`, for which the concentration at half-maximal activity (AC50) is, setting by setting: under setting [1], 3.16 µM [rising, partial curve, poor fit]; under setting [2], 12.6 µM [falling, partial curve].

As for `COc1ccc(-c2noc(CN(C(=O)c3ccc(OC(C)=O)cc3)C(C)C)n2)cc1OC`, under setting [1], the AC50 is 0.0731 µM [rising, partial curve, poor fit]. Turning to `Cc1ccccc1/C=C/c1nc2ccccc2c(=O)[nH]1`, the AC50 under setting [1] is 0.282 µM [falling, full curve]. Still for that read-out and setting: to `C[C@@H]1CN([C@H](C)CO)C(=O)Cc2cc(NC(=O)CCC(F)(F)F)ccc2O[C@@H]1CN(C)C(=O)Nc1ccccc1` belongs 18.4 µM [rising, single point]; to `CCCCN(C)C(=O)c1cccc(OC2CCN(CC(C)(C)C)CC2)c1`, 0.708 µM [falling, full curve, poor fit]; to `O=S(=O)(/N=C(/Nc1cc(N2CCOCC2)ncn1)c1ccc(F)cc1)c1ccccc1`, 1.84 µM [rising, partial curve, poor fit]. Still for that read-out and setting: to `O=C(CC12CC3CC(CC(C3)C1)C2)Nc1ccccc1N1CCOCC1` belongs 1.58 µM [rising, partial curve]; to `COc1cccc(/C=N/NC(=O)c2ccccc2NC(=O)c2ccco2)c1OC`, 15.8 µM [falling, single point].

The record behind these values is PubChem BioAssay AID493014 (National Center for Advancing Translational Sciences (NCATS), 2011).
